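A panel of P. falciparum strains inside erythrocytes is exposed to compounds for three days, then a DNA-binding dye reports the amount of parasite DNA. Each compound was titrated across a series from about 0.000037 to 29 µM. The number is the fitted AC50, the concentration giving a half-maximal change in signal; a lower value means higher potency, whether the curve shows a decrease or an increase. Calls follow the curve class and fit quality: every row here is inconclusive, covering signal-raising curves and weak, poorly fitted, partial or highest-dose-only inhibition curves.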

Values are in µM. All entries here are filed as inconclusive. Only part of the assay is shown, chiefly results filed as inconclusive. A potency from a partial, single-point or poor curve is only a rough figure.

Compound	setting	potency (µM)	remark
CCCCCCOc1ccc(C(=N)N(CCCC)CCCC)c2ccccc12	CP315	19.01	inhibitor, single point
CCCCCCOc1ccc(C(=N)N(CCCC)CCCC)c2ccccc12	JCK	17.78	inhibitor, single point
CCCCCCOc1ccc(C(=N)N(CCCC)CCCC)c2ccccc12	CP325	19.01	inhibitor, single point
CCCCCCOc1ccc(C(=N)N(CCCC)CCCC)c2ccccc12	CP256	17.78	inhibitor, single point
CCCCCCOc1ccc(C(=N)N(CCCC)CCCC)c2ccccc12	CP262	16.94	inhibitor, single point
CCCCC/C=C\C/C=C\C/C=C\CCCCC(=O)O	ICS	11.22	inhibitor, single point
CCCCC/C=C\C/C=C\C/C=C\CCCCC(=O)O	GB4	9.528	inhibitor, partial curve, poor fit
CCCCC/C=C\C/C=C\C/C=C\CCCCC(=O)O	CP297	1.51	inhibitor, partial curve, poor fit
CCCCC/C=C\C/C=C\C/C=C\CCCCC(=O)O	7G8	12.59	inhibitor, single point
C=CC[N+]1([C@H]2C[C@H]3[C@@H]4CC[C@H]5C[C@H](O)[C@@H](N6CCOCC6)C[C@]5(C)[C@H]4CC[C@]3(C)[C@H]2OC(C)=O)CCCC1	TAB165	11.22	inhibitor, partial curve
C=CC[N+]1([C@H]2C[C@H]3[C@@H]4CC[C@H]5C[C@H](O)[C@@H](N6CCOCC6)C[C@]5(C)[C@H]4CC[C@]3(C)[C@H]2OC(C)=O)CCCC1	CP325	16.94	inhibitor, single point
C=CC[N+]1([C@H]2C[C@H]3[C@@H]4CC[C@H]5C[C@H](O)[C@@H](N6CCOCC6)C[C@]5(C)[C@H]4CC[C@]3(C)[C@H]2OC(C)=O)CCCC1	ATS95	7.943	inhibitor, partial curve
C=CC[N+]1([C@H]2C[C@H]3[C@@H]4CC[C@H]5C[C@H](O)[C@@H](N6CCOCC6)C[C@]5(C)[C@H]4CC[C@]3(C)[C@H]2OC(C)=O)CCCC1	HB3	10	inhibitor, single point
C=CC[N+]1([C@H]2C[C@H]3[C@@H]4CC[C@H]5C[C@H](O)[C@@H](N6CCOCC6)C[C@]5(C)[C@H]4CC[C@]3(C)[C@H]2OC(C)=O)CCCC1	CP269	19.01	inhibitor, single point
C=CC[N+]1([C@H]2C[C@H]3[C@@H]4CC[C@H]5C[C@H](O)[C@@H](N6CCOCC6)C[C@]5(C)[C@H]4CC[C@]3(C)[C@H]2OC(C)=O)CCCC1	CP315	19.01	inhibitor, single point
C=CC[N+]1([C@H]2C[C@H]3[C@@H]4CC[C@H]5C[C@H](O)[C@@H](N6CCOCC6)C[C@]5(C)[C@H]4CC[C@]3(C)[C@H]2OC(C)=O)CCCC1	CP192	21.33	inhibitor, single point
C=CC[N+]1([C@H]2C[C@H]3[C@@H]4CC[C@H]5C[C@H](O)[C@@H](N6CCOCC6)C[C@]5(C)[C@H]4CC[C@]3(C)[C@H]2OC(C)=O)CCCC1	DIV30	19.01	inhibitor, single point
C=CC[N+]1([C@H]2C[C@H]3[C@@H]4CC[C@H]5C[C@H](O)[C@@H](N6CCOCC6)C[C@]5(C)[C@H]4CC[C@]3(C)[C@H]2OC(C)=O)CCCC1	CP191	8.912	inhibitor, single point
C=CC[N+]1([C@H]2C[C@H]3[C@@H]4CC[C@H]5C[C@H](O)[C@@H](N6CCOCC6)C[C@]5(C)[C@H]4CC[C@]3(C)[C@H]2OC(C)=O)CCCC1	CP297	7.569	inhibitor, partial curve, poor fit
C=CC[N+]1([C@H]2C[C@H]3[C@@H]4CC[C@H]5C[C@H](O)[C@@H](N6CCOCC6)C[C@]5(C)[C@H]4CC[C@]3(C)[C@H]2OC(C)=O)CCCC1	CP215	13.46	inhibitor, single point
C=CC[N+]1([C@H]2C[C@H]3[C@@H]4CC[C@H]5C[C@H](O)[C@@H](N6CCOCC6)C[C@]5(C)[C@H]4CC[C@]3(C)[C@H]2OC(C)=O)CCCC1	AS120	11.22	inhibitor, single point
C=CC[N+]1([C@H]2C[C@H]3[C@@H]4CC[C@H]5C[C@H](O)[C@@H](N6CCOCC6)C[C@]5(C)[C@H]4CC[C@]3(C)[C@H]2OC(C)=O)CCCC1	CP201	15.1	inhibitor, single point
C=CC[N+]1([C@H]2C[C@H]3[C@@H]4CC[C@H]5C[C@H](O)[C@@H](N6CCOCC6)C[C@]5(C)[C@H]4CC[C@]3(C)[C@H]2OC(C)=O)CCCC1	CP268	15.1	inhibitor, single point
C=CC[N+]1([C@H]2C[C@H]3[C@@H]4CC[C@H]5C[C@H](O)[C@@H](N6CCOCC6)C[C@]5(C)[C@H]4CC[C@]3(C)[C@H]2OC(C)=O)CCCC1	CP194	19.01	inhibitor, single point
C=CC[N+]1([C@H]2C[C@H]3[C@@H]4CC[C@H]5C[C@H](O)[C@@H](N6CCOCC6)C[C@]5(C)[C@H]4CC[C@]3(C)[C@H]2OC(C)=O)CCCC1	N140	17.78	inhibitor, single point

Some entries from above, unchanged:

- C=CC[N+]1([C@H]2C[C@H]3[C@@H]4CC[C@H]5C[C@H](O)[C@@H](N6CCOCC6)C[C@]5(C)[C@H]4CC[C@]3(C)[C@H]2OC(C)=O)CCCC1 [HB3] | potency 10 µM (inhibitor, single point)
- C=CC[N+]1([C@H]2C[C@H]3[C@@H]4CC[C@H]5C[C@H](O)[C@@H](N6CCOCC6)C[C@]5(C)[C@H]4CC[C@]3(C)[C@H]2OC(C)=O)CCCC1 [CP269] | potency 19.01 µM (inhibitor, single point)

The results are deposited in PubChem (AID504749; NCATS, 2011).